# Some of the results follow.
# By UniProt entry, the sequences of proteins in these tests, tags left out. Where a name states a change or a piece, a line headed by the entry shows the natural chain unless it says otherwise.
# UniProt Q9Y5N5: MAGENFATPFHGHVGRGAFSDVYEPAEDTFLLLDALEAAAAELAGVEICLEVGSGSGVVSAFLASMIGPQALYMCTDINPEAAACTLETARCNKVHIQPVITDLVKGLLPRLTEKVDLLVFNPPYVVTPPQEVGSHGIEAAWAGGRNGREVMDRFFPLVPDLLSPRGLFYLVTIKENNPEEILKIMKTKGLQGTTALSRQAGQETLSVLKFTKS
# UniProt Q86Y39, whole entry, looked up: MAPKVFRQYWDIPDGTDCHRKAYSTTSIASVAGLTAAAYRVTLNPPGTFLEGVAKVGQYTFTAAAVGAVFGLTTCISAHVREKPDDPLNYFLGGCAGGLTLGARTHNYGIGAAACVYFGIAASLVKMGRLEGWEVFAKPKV
# UniProt P41227: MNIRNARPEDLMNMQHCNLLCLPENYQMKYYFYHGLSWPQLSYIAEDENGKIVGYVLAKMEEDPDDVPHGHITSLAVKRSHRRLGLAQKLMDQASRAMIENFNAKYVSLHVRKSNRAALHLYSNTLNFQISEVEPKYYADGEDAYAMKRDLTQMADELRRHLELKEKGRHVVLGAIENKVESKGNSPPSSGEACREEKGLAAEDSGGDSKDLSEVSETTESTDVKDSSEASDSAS
# UniProt Q7L592: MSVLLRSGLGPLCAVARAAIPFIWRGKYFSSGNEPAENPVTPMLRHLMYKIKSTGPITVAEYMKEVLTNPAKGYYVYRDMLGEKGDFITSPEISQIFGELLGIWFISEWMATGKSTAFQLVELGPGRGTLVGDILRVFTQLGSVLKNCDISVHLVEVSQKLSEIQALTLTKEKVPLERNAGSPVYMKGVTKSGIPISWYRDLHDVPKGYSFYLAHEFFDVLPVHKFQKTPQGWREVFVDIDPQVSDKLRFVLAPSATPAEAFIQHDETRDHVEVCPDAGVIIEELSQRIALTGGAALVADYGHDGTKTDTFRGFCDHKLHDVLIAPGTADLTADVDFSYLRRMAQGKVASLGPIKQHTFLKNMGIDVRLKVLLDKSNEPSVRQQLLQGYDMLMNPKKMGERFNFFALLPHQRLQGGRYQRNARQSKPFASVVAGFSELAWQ
# UniProt O76041: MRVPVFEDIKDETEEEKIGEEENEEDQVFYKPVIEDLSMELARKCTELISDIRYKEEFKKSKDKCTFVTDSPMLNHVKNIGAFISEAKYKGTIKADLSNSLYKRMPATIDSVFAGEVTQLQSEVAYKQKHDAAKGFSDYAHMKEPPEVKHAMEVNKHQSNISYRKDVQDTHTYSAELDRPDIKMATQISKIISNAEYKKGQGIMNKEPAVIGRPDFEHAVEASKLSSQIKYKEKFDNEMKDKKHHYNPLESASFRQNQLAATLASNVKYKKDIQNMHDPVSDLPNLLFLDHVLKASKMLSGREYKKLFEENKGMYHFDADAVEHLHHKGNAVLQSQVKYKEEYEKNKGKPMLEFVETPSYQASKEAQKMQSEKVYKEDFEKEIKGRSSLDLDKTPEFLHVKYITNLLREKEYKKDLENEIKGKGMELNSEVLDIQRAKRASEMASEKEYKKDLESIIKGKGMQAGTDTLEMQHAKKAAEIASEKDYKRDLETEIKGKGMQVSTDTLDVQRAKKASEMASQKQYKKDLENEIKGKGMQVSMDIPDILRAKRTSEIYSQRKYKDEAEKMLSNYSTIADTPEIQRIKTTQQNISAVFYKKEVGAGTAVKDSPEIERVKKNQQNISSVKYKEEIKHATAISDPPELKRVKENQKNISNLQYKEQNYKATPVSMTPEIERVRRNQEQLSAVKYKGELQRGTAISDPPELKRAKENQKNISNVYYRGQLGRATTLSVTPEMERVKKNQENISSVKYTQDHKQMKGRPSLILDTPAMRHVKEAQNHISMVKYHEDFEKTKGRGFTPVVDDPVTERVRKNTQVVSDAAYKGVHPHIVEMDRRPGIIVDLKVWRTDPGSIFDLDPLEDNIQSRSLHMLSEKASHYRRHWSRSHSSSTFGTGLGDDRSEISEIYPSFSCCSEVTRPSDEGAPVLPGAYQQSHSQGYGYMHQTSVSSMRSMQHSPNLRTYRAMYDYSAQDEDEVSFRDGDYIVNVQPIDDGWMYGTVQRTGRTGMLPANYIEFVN
# UniProt O43181, whole entry, looked up: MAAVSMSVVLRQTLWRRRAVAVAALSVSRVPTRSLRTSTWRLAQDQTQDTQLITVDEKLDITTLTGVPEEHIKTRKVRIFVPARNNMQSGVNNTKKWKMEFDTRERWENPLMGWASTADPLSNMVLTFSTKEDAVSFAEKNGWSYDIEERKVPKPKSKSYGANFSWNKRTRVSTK
# UniProt Q9P032: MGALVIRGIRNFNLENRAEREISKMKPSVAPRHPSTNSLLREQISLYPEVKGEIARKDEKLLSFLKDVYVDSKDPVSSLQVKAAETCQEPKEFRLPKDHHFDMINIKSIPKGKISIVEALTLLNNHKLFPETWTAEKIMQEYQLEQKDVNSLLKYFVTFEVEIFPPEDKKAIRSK
# UniProt O00483, whole entry, looked up: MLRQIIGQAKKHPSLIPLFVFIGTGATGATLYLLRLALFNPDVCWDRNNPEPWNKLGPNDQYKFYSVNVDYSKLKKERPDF
# UniProt P55209: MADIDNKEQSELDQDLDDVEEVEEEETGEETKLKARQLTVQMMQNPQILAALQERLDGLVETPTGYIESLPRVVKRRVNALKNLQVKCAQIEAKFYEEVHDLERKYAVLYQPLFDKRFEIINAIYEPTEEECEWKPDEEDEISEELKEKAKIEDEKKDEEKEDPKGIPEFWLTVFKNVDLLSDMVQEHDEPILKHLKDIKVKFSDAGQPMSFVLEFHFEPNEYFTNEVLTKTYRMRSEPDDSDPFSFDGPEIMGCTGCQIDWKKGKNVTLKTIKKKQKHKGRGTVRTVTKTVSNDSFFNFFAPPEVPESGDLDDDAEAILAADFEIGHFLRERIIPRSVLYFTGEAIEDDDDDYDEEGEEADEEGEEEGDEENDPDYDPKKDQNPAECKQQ
# UniProt P42695: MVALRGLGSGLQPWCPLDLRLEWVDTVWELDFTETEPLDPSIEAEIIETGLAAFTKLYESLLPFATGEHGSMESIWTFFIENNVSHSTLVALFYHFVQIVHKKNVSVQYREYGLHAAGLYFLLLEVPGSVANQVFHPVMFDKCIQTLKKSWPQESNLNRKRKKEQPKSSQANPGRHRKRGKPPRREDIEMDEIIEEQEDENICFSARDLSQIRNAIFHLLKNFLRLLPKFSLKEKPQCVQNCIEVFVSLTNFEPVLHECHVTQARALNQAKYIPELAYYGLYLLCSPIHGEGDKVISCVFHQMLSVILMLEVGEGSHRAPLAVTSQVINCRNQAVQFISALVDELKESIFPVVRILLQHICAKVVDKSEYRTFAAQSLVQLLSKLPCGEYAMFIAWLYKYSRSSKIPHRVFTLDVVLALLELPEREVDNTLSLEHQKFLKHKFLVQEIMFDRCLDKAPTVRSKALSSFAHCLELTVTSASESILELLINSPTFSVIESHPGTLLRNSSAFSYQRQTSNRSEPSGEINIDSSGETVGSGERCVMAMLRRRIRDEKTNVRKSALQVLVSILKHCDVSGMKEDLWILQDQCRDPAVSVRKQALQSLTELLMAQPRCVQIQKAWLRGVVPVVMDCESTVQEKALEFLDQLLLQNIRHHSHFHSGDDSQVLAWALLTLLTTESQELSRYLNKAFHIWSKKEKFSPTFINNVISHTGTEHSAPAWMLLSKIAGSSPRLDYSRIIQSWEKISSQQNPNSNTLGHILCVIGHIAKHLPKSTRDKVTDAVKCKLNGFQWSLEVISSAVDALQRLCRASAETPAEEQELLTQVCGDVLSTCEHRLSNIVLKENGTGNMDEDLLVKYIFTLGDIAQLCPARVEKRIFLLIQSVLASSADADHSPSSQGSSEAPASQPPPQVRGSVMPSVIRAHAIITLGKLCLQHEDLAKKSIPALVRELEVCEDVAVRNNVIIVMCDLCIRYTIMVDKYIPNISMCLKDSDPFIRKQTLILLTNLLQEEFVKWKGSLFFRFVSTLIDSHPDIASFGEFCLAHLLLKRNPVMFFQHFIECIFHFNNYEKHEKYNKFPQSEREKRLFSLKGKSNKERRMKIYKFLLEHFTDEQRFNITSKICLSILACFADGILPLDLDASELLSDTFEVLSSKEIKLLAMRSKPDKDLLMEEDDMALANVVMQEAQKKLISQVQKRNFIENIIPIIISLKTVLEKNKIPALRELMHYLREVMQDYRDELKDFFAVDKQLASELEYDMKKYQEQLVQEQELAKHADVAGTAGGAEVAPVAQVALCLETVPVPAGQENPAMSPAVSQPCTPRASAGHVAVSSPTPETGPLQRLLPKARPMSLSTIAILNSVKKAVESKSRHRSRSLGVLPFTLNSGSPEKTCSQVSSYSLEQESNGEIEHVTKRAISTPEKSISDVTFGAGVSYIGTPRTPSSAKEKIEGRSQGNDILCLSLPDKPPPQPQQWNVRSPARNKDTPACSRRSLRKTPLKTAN
# UniProt Q9UHB4: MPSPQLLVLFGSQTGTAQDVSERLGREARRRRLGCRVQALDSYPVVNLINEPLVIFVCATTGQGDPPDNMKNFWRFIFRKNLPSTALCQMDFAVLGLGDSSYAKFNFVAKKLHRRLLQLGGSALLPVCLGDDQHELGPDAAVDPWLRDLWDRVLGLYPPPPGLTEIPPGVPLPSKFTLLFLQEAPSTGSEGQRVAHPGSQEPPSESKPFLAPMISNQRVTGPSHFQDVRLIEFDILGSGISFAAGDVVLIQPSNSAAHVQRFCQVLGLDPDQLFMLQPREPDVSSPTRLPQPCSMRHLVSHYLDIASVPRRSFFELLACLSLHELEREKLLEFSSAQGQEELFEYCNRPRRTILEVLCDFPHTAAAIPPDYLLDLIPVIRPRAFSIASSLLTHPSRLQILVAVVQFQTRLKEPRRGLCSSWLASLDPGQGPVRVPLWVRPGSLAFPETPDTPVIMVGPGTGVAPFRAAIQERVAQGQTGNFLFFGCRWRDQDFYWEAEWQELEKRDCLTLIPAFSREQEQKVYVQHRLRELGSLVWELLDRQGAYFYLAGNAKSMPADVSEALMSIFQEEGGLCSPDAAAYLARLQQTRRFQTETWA
# UniProt Q92692, whole entry, looked up: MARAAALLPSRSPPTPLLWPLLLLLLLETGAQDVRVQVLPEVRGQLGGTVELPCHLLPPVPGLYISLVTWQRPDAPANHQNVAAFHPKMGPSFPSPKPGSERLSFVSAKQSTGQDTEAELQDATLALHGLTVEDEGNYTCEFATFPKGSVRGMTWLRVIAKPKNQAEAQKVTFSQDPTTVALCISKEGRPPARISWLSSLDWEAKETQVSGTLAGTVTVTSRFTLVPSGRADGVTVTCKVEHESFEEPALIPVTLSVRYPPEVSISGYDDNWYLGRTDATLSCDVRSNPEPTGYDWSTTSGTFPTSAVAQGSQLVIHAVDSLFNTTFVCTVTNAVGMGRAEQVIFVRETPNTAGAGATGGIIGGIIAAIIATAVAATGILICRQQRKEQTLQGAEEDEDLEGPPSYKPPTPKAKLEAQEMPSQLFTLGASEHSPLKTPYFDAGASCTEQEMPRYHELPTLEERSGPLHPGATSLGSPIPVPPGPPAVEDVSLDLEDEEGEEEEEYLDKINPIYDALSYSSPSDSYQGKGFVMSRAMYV
# UniProt O75306, whole entry, looked up: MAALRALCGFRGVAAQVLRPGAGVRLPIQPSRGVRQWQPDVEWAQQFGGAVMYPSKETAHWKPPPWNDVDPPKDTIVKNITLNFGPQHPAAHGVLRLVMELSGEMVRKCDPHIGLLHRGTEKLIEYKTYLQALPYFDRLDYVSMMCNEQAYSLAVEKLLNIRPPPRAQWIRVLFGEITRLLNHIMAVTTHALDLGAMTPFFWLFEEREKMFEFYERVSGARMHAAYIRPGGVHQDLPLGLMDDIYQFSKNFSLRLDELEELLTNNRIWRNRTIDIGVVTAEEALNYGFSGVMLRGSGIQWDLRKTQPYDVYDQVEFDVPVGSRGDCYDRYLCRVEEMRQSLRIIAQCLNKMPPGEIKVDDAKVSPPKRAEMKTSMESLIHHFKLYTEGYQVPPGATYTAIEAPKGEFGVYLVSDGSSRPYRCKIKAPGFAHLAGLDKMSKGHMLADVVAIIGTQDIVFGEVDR
# UniProt Q96I59: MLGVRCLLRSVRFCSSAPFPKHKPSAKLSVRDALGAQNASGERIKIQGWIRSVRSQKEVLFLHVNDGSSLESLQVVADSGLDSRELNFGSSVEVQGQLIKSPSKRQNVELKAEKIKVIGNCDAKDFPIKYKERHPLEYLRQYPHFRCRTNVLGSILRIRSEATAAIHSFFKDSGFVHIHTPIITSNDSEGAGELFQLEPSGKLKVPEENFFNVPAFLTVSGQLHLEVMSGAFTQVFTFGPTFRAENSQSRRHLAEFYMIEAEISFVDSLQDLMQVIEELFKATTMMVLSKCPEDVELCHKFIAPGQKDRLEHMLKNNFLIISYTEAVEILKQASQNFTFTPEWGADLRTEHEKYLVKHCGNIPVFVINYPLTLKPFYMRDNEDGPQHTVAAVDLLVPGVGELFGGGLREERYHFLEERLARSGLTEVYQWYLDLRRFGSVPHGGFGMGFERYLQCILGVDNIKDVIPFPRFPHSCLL
# Tests used:
# Assay in all cases: log2 fold change, soluble protein after heating vs DMSO (PISA); higher = thermal stabilisation; K562 cells, 10 uM, 30 min; active = over 0.2 and 3.5 SD of the protein, either way, in both replicates (recomputed)
# [1] = compound: COC1=CC=C(C=C1)CN2C=CC3=C2C=C(C=C3)C(=O)NO
# Outline: (§1)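 Soluble protein was quantified by TMTpro 16plex LC-MS/MS after channel sums were equalised. It was obtained as the supernatant after 21,000xg for 90 min from pooled aliquots of K562 cells (2×10^6 cells/mL, 10 μM compound, 30 min) heated for 3 min across 48°C-58°C and extracted in PBS with 0.5% NP-40 at 4°C. Thermal stability values are relative to control samples and come from duplicates. They are given as log2 fold changes.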
# filanesib = compound: CON(C)C(=O)N1N=C(c2cc(F)ccc2F)S[C@@]1(CCCN)c1ccccc1 [filanesib]
# Outline: as §1
# zotarolimus = compound: CO[C@H]1C[C@@H]2CC[C@@H](C)[C@@](O)(O2)C(=O)C(=O)N2CCCC[C@H]2C(=O)O[C@H]([C@H](C)C[C@@H]2CC[C@H](n3cnnn3)[C@H](OC)C2)CC(=O)[C@H](C)/C=C(\C)[C@@H](O)[C@@H](OC)C(=O)[C@H](C)C[C@H](C)/C=C/C=C/C=C/1C [zotarolimus]
# Outline: as §1
# idasanutlin = compound: COc1cc(C(=O)O)ccc1NC(=O)[C@@H]1N[C@@H](CC(C)(C)C)[C@](C#N)(c2ccc(Cl)cc2F)[C@H]1c1cccc(Cl)c1F [idasanutlin]
# Outline: as §1
# alisertib = compound: COc1cc(Nc2ncc3c(n2)-c2ccc(Cl)cc2C(c2c(F)cccc2OC)=NC3)ccc1C(=O)O [alisertib]
# Outline: as §1
# [2] = compound: COc1cc2nc(-c3cc(F)ccc3O)nc(N[C@@H]3CNC[C@H]3C(C)(C)O)c2cc1OC
# Outline: as §1
# gefitinib = compound: COc1cc2ncnc(Nc3ccc(F)c(Cl)c3)c2cc1OCCCN1CCOCC1 [gefitinib]
# Outline: as §1
# [3] = compound: COc1cccc2cc(-c3nc([C@H]4CC[C@H](C(=O)O)CC4)n4ncnc(N)c34)[nH]c12
# Outline: as §1
# lapatinib = compound: CS(=O)(=O)CCNCc1ccc(-c2ccc3ncnc(Nc4ccc(OCc5cccc(F)c5)c(Cl)c4)c3c2)o1 [lapatinib]
# Outline: as §1
# pictilisib = compound: CS(=O)(=O)N1CCN(Cc2cc3nc(-c4cccc5[nH]ncc45)nc(N4CCOCC4)c3s2)CC1 [pictilisib]
# Outline: as §1
# [4] = compound: CS(=O)(=O)c1ccc(-c2cnc(N)c(C(=O)Nc3ccccc3)n2)cc1
# Outline: as §1
# crizotinib = compound: C[C@@H](Oc1cc(-c2cnn(C3CCNCC3)c2)cnc1N)c1c(Cl)ccc(F)c1Cl [crizotinib]
# Outline: as §1
# [5] = compound: C[C@@H]1COCCN1C2=NC(=NC(=C2)C3(CC3)S(=O)(=O)C)C4=C5C=CNC5=CC=C4
# Outline: as §1
# [6] = compound: C[C@H](C1=CC=C(C=C1)C(=O)NC2=C3C=CNC3=NC=C2)N
# Outline: as §1
# duvelisib = compound: C[C@H](Nc1ncnc2nc[nH]c12)c1cc2cccc(Cl)c2c(=O)n1-c1ccccc1 [duvelisib]
# Outline: as §1
# gandotinib = compound: Cc1cc(Nc2cc(CN3CCOCC3)c3nc(C)c(Cc4ccc(Cl)cc4F)n3n2)n[nH]1 [gandotinib]
# Outline: as §1
# tozasertib = compound: Cc1cc(Nc2cc(N3CCN(C)CC3)nc(Sc3ccc(NC(=O)C4CC4)cc3)n2)n[nH]1 [tozasertib]
# Outline: as §1
# [7] = compound: Cc1cc(SCc2sc(-c3ccc(C(F)(F)F)cc3)nc2C)ccc1OCC(=O)O
# Outline: as §1
# doramapimod = compound: Cc1ccc(-n2nc(C(C)(C)C)cc2NC(=O)Nc2ccc(OCCN3CCOCC3)c3ccccc23)cc1 [doramapimod]
# Outline: as §1
# ispinesib = compound: Cc1ccc(C(=O)N(CCCN)[C@@H](c2nc3cc(Cl)ccc3c(=O)n2Cc2ccccc2)C(C)C)cc1 [ispinesib]
# Outline: as §1
Target,log2 fold change [1],log2 fold change (filanesib),log2 fold change (zotarolimus),log2 fold change (idasanutlin),log2 fold change (alisertib),log2 fold change [2],log2 fold change (gefitinib),log2 fold change [3],log2 fold change (lapatinib),log2 fold change (pictilisib),log2 fold change [4],log2 fold change (crizotinib),log2 fold change [5],log2 fold change [6],log2 fold change (duvelisib),log2 fold change (gandotinib),log2 fold change (tozasertib),log2 fold change [7],log2 fold change (doramapimod),log2 fold change (ispinesib)
MYO9B (UniProt Q13459),inactive: -0.057,inactive: 0.231,inactive: -0.002,inactive: 0.059,inactive: 0.08,inactive: 0.061,inactive: 0.055,inactive: -0.099,inactive: -0.031,inactive: 0.036,inactive: 0.078,inactive: -0.078,inactive: -0.039,inactive: 0.228,inactive: -0.037,inactive: 0.05,inactive: 0.013,inactive: 0.042,inactive: 0.127,inactive: -0.135
N6AMT1 (UniProt Q9Y5N5),inactive: -0.165,inactive: 0.019,inactive: 0.019,inactive: -0.003,inactive: -0.046,inactive: 0.054,inactive: -0.044,inactive: 0.044,inactive: -0.042,inactive: 0.064,inactive: 0.006,inactive: 0.034,inactive: 0.083,inactive: -0.132,inactive: 0.085,inactive: -0.013,inactive: 0.038,inactive: -0.032,inactive: 0.082,inactive: 0.012
NDUFA11 (UniProt Q86Y39),inactive: -0.115,inactive: 0.034,inactive: -0.025,inactive: -0.054,inactive: -0.071,inactive: -0.059,inactive: 0.023,inactive: -0.013,inactive: -0.012,inactive: -0.039,inactive: 0.019,inactive: 0.057,inactive: 0.137,inactive: -0.097,inactive: 0.057,inactive: -0.023,inactive: 0.029,inactive: -0.004,inactive: -0.054,inactive: 0
NAA10 (UniProt P41227),inactive: 0.013,inactive: -0.04,inactive: 0.007,inactive: -0.047,inactive: 0.023,inactive: -0.014,inactive: 0,inactive: 0.015,inactive: 0.012,inactive: -0.005,inactive: 0.013,inactive: 0.001,inactive: 0.071,inactive: -0.064,inactive: -0.008,inactive: -0.044,inactive: 0,inactive: 0.038,inactive: -0.019,inactive: 0.04
NAGK isoform 2 (UniProt Q9UJ70),inactive: 0,inactive: -0.046,inactive: -0.04,inactive: -0.014,inactive: 0.003,inactive: 0.038,inactive: 0.014,inactive: 0.056,inactive: 0.007,inactive: 0.062,inactive: 0.131,inactive: 0.025,inactive: 0.034,inactive: -0.059,inactive: 0.039,inactive: -0.025,inactive: -0.026,inactive: -0.028,inactive: 0.009,inactive: -0.002
NDUFAF7 (UniProt Q7L592),inactive: 0.118,inactive: -0.039,inactive: 0.079,inactive: -0.027,inactive: 0.084,inactive: -0.059,inactive: 0.125,inactive: 0.174,inactive: -0.024,inactive: 0.278,inactive: 0.011,inactive: -0.156,inactive: 0.033,inactive: -0.007,–,inactive: -0.231,inactive: -0.107,–,inactive: -0.046,inactive: -0.038
NEBL isoform 2 (UniProt O76041),inactive: -0.006,inactive: -0.026,inactive: 0.011,inactive: 0.021,inactive: 0,inactive: 0.039,inactive: 0.009,inactive: 0.068,inactive: -0.039,inactive: 0.002,inactive: 0.061,inactive: 0.016,inactive: -0.081,inactive: 0.002,inactive: 0.035,inactive: 0.026,inactive: -0.024,inactive: -0.041,inactive: 0.042,inactive: -0.016
NDUFS4 (UniProt O43181),inactive: -0.018,inactive: -0.019,inactive: -0.022,inactive: 0.035,inactive: -0.074,inactive: -0.077,inactive: -0.008,inactive: 0.036,inactive: 0.029,inactive: -0.122,inactive: -0.035,inactive: -0.089,inactive: -0.027,inactive: 0.086,–,inactive: 0.164,–,inactive: -0.058,inactive: 0.018,inactive: -0.216
NDUFAF4 (UniProt Q9P032),inactive: -0.021,inactive: -0.137,inactive: 0.018,inactive: -0.082,inactive: -0.037,inactive: -0.058,inactive: -0.025,inactive: 0.026,inactive: -0.015,inactive: 0.059,inactive: -0.005,inactive: -0.14,inactive: 0.06,inactive: -0.05,inactive: 0.048,inactive: -0.041,inactive: -0.005,inactive: 0.005,inactive: -0.032,inactive: -0.161
NDUFA4 (UniProt O00483),inactive: -0.022,inactive: -0.031,inactive: -0.019,inactive: 0.038,inactive: -0.024,inactive: -0.044,inactive: 0.024,inactive: 0.019,inactive: 0.048,inactive: -0.025,inactive: -0.045,inactive: 0.138,inactive: 0.162,inactive: -0.055,–,inactive: -0.099,–,inactive: 0.022,inactive: 0.034,inactive: 0.204
NAP1L1 (UniProt P55209),inactive: -0.001,inactive: 0.08,inactive: 0.078,inactive: 0.053,inactive: -0.043,inactive: 0.078,inactive: -0.002,inactive: -0.041,inactive: -0.005,inactive: 0.107,inactive: 0.018,inactive: -0.025,inactive: -0.122,inactive: -0.021,–,inactive: -0.09,–,inactive: -0.016,inactive: 0.009,inactive: 0.04
NCAPD3 (UniProt P42695),inactive: -0.079,inactive: -0.081,inactive: -0.002,inactive: -0.069,inactive: -0.037,inactive: 0.039,inactive: -0.026,inactive: -0.013,inactive: -0.019,inactive: 0.143,inactive: -0.009,inactive: -0.005,inactive: -0.004,inactive: -0.018,inactive: -0.007,inactive: 0.005,inactive: 0.101,inactive: 0.091,inactive: 0.034,inactive: -0.034
NDOR1 isoform 2 (UniProt Q9UHB4),inactive: -0.01,inactive: 0.039,inactive: 0.039,inactive: -0.044,inactive: 0.073,inactive: 0.109,inactive: -0.033,inactive: -0.024,inactive: 0.003,inactive: -0.077,inactive: 0.098,inactive: 0.08,inactive: 0.047,inactive: -0.014,inactive: 0.063,inactive: 0.029,inactive: -0.006,inactive: 0.012,inactive: -0.035,inactive: 0.007
NECTIN2 (UniProt Q92692),inactive: -0.028,inactive: 0.027,inactive: -0.042,inactive: -0.003,inactive: -0.084,inactive: 0.011,inactive: 0.06,inactive: 0.014,inactive: -0.01,inactive: 0.021,inactive: 0.004,inactive: 0.121,inactive: 0.082,inactive: -0.148,–,inactive: -0.036,–,inactive: -0.038,inactive: 0.015,inactive: 0.113
NDUFS2 (UniProt O75306),inactive: 0.016,inactive: -0.136,inactive: 0.029,inactive: -0.107,inactive: 0.001,inactive: -0.041,inactive: -0.011,inactive: 0.038,inactive: 0.022,inactive: 0.006,inactive: -0.054,inactive: -0.075,inactive: 0.085,inactive: -0.088,inactive: 0.026,inactive: -0.108,inactive: 0.002,inactive: 0.012,inactive: 0.007,inactive: -0.04
NARS2 (UniProt Q96I59),inactive: -0.213,inactive: -0.196,inactive: 0.027,inactive: -0.072,inactive: -0.046,inactive: 0.007,inactive: -0.039,inactive: 0.09,inactive: -0.031,inactive: -0.037,inactive: 0.038,inactive: -0.099,inactive: 0.125,inactive: -0.061,–,inactive: 0.02,–,inactive: -0.028,inactive: -0.009,active: -0.401

# Some of the entries so far, as tab-separated lines:
Target	log2 fold change [1]	log2 fold change (filanesib)	log2 fold change (zotarolimus)	log2 fold change (idasanutlin)	log2 fold change (alisertib)	log2 fold change [2]	log2 fold change (gefitinib)	log2 fold change [3]	log2 fold change (lapatinib)	log2 fold change (pictilisib)	log2 fold change [4]	log2 fold change (crizotinib)	log2 fold change [5]	log2 fold change [6]	log2 fold change (duvelisib)	log2 fold change (gandotinib)	log2 fold change (tozasertib)	log2 fold change [7]	log2 fold change (doramapimod)	log2 fold change (ispinesib)
NDUFA4 (UniProt O00483)	inactive: -0.022	inactive: -0.031	inactive: -0.019	inactive: 0.038	inactive: -0.024	inactive: -0.044	inactive: 0.024	inactive: 0.019	inactive: 0.048	inactive: -0.025	inactive: -0.045	inactive: 0.138	inactive: 0.162	inactive: -0.055	–	inactive: -0.099	–	inactive: 0.022	inactive: 0.034	inactive: 0.204
NAP1L1 (UniProt P55209)	inactive: -0.001	inactive: 0.08	inactive: 0.078	inactive: 0.053	inactive: -0.043	inactive: 0.078	inactive: -0.002	inactive: -0.041	inactive: -0.005	inactive: 0.107	inactive: 0.018	inactive: -0.025	inactive: -0.122	inactive: -0.021	–	inactive: -0.09	–	inactive: -0.016	inactive: 0.009	inactive: 0.04
NCAPD3 (UniProt P42695)	inactive: -0.079	inactive: -0.081	inactive: -0.002	inactive: -0.069	inactive: -0.037	inactive: 0.039	inactive: -0.026	inactive: -0.013	inactive: -0.019	inactive: 0.143	inactive: -0.009	inactive: -0.005	inactive: -0.004	inactive: -0.018	inactive: -0.007	inactive: 0.005	inactive: 0.101	inactive: 0.091	inactive: 0.034	inactive: -0.034
NDOR1 isoform 2 (UniProt Q9UHB4)	inactive: -0.01	inactive: 0.039	inactive: 0.039	inactive: -0.044	inactive: 0.073	inactive: 0.109	inactive: -0.033	inactive: -0.024	inactive: 0.003	inactive: -0.077	inactive: 0.098	inactive: 0.08	inactive: 0.047	inactive: -0.014	inactive: 0.063	inactive: 0.029	inactive: -0.006	inactive: 0.012	inactive: -0.035	inactive: 0.007
